In PubChem BioAssay AID504834 (National Center for Advancing Translational Sciences (NCATS), 2011):
In all, about 320,000 compounds went through this assay and about 22,000 (6.9%) were called active. The shares of active, inactive and inconclusive entries below differ from those in the screen. Calls follow the shape of the dose curve; as a rule, active = well fitted inhibition curve with a large enough effect; inconclusive = small, poorly fitted or top-dose-only effect, or another doubt; inactive = no such curve, though single readings can be large or run the other way. Potencies of inconclusive entries are doubtful fits and often do not repeat.

Experiment: Primary qHTS for delayed death inhibitors of the malarial parasite plastid, 96 hour incubation
Settings: P. falciparum luciferase reporter growth; series mostly up to 28.7 µM; activity change, negative = inhibition: at the top concentration
Outline: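 Cell-based qHTS: luciferase-tagged P. falciparum in erythrocytes (2% hematocrit, 0.05% parasitemia final) incubated with compounds for 96 hours, 37 C, 5% CO2; luciferase detection reagent then added and luminescence measured.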
% is scaled to controls: 0 for no effect and ±100 for the full control effect; potency is read from the fitted curve at half-maximal effect.

Compound | activity change, negative = inhibition | Potency
Cc1ccc(S(=O)(=O)n2ccc3cccnc32)cc1 | inactive: -19.3% | 
COC(=O)CCN(C(C)=O)c1ccc(N)cc1 |  | inconclusive: 10.4 µM [inhibitor, single point]
CCOc1cc(/C=N/n2cnnc2)ccc1OC(=O)c1cccc([N+](=O)[O-])c1 |  | active: 3.29 µM
COc1ccc(/C=C2\SC(=S)N(CCC(=O)NC3C=CS(=O)(=O)C3)C2=O)cc1 (centres undefined) |  | inconclusive: 11.7 µM [inhibitor, single point]
Cc1c(C)n2c(SCC(=O)N3CCC(C)CC3)nnc2[nH]c1=O |  | inconclusive: 13.1 µM [inhibitor, single point]
O=C(Nc1ccc(NC(=O)N2CCN(c3ccccc3O)CC2)cc1)N1CCN(c2ccccc2O)CC1 |  | active: 5.86 µM
COc1ccc(OC)c(C2(O)CSC(=Nc3cccnc3)N2Cc2ccco2)c1 (centres undefined) |  | active: 4.65 µM
O=C(CCc1c[nH]c2ccccc12)OCc1ccc(Br)cc1 |  | inconclusive: 11.7 µM [inhibitor, single point]
Nc1ccc2c(c1)OCCOCCOCCOCCOCCO2 |  | active: 5.86 µM
c1ccc2cc(Sc3ncnc4c3oc3ccccc34)ccc2c1 | inactive: 87.4% | 
Cc1ccc(NC2CCCN(C(=O)CCCN3CCCCC3=O)C2)cc1C (centres undefined) |  | inconclusive: 5.22 µM [inhibitor, partial curve, poor fit]
Cc1ccccc1C(=O)Nc1ccnn1C1CCN(Cc2cccnc2)CC1 | inactive: -3.98% | 
CC(c1ccccc1)N1C(=O)/C(=C/c2ccncc2)SC1=S (centres undefined) |  | inconclusive: 18.5 µM [inhibitor, single point]
Cc1cc(NCCCO)n2c(nc3ccccc32)c1C#N |  | inconclusive: 11.7 µM [inhibitor, partial curve, poor fit]
CCc1ccc(NC(=S)N2CCC(NC(=O)c3ccccc3)CC2)cc1 |  | inconclusive: 18.5 µM [inhibitor, single point]
S=c1[nH]nc(Cn2c(-c3ccccn3)nc3ccccc32)n1-c1ccc2c(c1)OCCO2 |  | inconclusive: 3.29 µM [inhibitor, full curve, poor fit]
Nc1nnc(SCC(=O)OCC(=O)NC2CCCCC2)s1 | inactive: 15.1% | 
NC(N)=NC(N)=Nc1ccccc1 |  | inconclusive: 11.7 µM [inhibitor, partial curve, poor fit]
COc1ccc(C2c3ccsc3CCN2C(=O)NC(C)(C)C)cc1 (centres undefined) |  | inconclusive: 8.28 µM [inhibitor, partial curve, poor fit]
Cc1ccc(N2C(=O)[C@@H]3[C@H](C2=O)[C@H]2C=C(C(=O)c4ccccc4)C=CN2[C@@H]3C(=O)c2ccc(Cl)cc2)cc1 |  | inconclusive: 6.57 µM [inhibitor, partial curve]
COc1cccc(CNC(=O)CCC2CCCN(C(=O)c3cc(C)on3)C2)c1 (centres undefined) | inactive: 45.6% | 
CC(=O)c1ccc(NC(=O)CC2Nc3cccc4cccc(c34)NC2=O)cc1 (centres undefined) |  | inconclusive: 6.57 µM [inhibitor, partial curve]
C/C(=N\N1CCN(c2ccccc2)CC1)c1ccc(O)cc1 | inactive: 16.6% | 

Compound | activity change, negative = inhibition | Potency
O=C(Nc1cccc(F)c1)Nc1cccc(Cl)c1 |  | inconclusive: 14.7 µM [inhibitor, single point]
COc1ccccc1N1CCN(C(=O)c2cc3c(-c4ccc(Cl)cc4)nn(C)c3s2)CC1 |  | inconclusive: 10.4 µM [inhibitor, single point]
CCCCn1c(CN2CCN(c3ccccc3)CC2)nc2c1c(=O)n(C)c(=O)n2C |  | inconclusive: 13.1 µM [inhibitor, single point]
CCOc1cc(Cl)c(NC(C)=O)cc1OCC | inactive: 13.5% | 
COc1ccc(S(=O)(=O)N2CCCCCC2)cc1NC(=O)c1ccccc1 |  | inconclusive: 8.28 µM [inhibitor, partial curve, poor fit]
Cc1ccccc1Nc1nc(N)nc(COC(=O)CCC(=O)c2ccc(F)cc2)n1 |  | inconclusive: 1.47 µM [inhibitor, full curve]
O=S(=O)(c1ccc(Cl)cc1)N1CC1c1ccccc1 (centres undefined) | inactive: 103% | 
CN1C(=O)[C@H](Cc2ccc([N+](=O)[O-])cc2)NC1=S | inactive: 10.2% | 
COc1ccc([N+](=O)[O-])cc1NC(=O)Cc1c(Cl)cccc1Cl |  | inconclusive: 0.329 µM [inhibitor, full curve]
O=C(c1cccnc1)N1CCCC(Nc2ccc(F)cc2)C1 (centres undefined) |  | inconclusive: 11.7 µM [inhibitor, single point]
CCOc1cc(/C=C(\C#N)C(N)=O)ccc1OCc1c(C)no[n+]1[O-] |  | inconclusive: 0.738 µM [inhibitor, full curve, poor fit]
CCN(CC)CCNS(=O)(=O)c1ccc(C(=O)NN)cc1 |  | inconclusive: 18.5 µM [inhibitor, partial curve, poor fit]
O=C(NNc1nc(-c2ccccc2)cs1)c1ccc(F)cc1 |  | active: 9.28 µM
Cc1nc2cc(C(F)(F)F)ccc2n1C1CCN(CC(=O)N2CCOCC2)CC1 |  | inconclusive: 3.7 µM [inhibitor, full curve]
Cc1ccc(NC(=O)C2(c3cccs3)CCOCC2)cc1C |  | inconclusive: 10.4 µM [inhibitor, single point]
CC(C(=O)Nc1ccc2c(c1)OCO2)c1ccc([N+](=O)[O-])cc1 (centres undefined) |  | inconclusive: 0.185 µM [inhibitor, partial curve, poor fit]
COc1ccccc1N(CCC#N)C(=O)CSc1ccc2c(c1)OCCO2 |  | inconclusive: 9.28 µM [inhibitor, partial curve, poor fit]
O=[N+]([O-])c1nn(-c2ccc3c(c2)OCCO3)n(O)c1=NC1CCN(Cc2ccccc2)CC1 |  | inconclusive: 6.57 µM [inhibitor, single point]
O=C(Nc1nc(-c2cc3ccccc3o2)cs1)c1ccc(S(=O)(=O)N2CCCC2)cc1 |  | active: 13.1 µM
CCN1CCN(c2ccc(NC(=O)c3cc4ccccc4cc3OC)cc2C)CC1 |  | inconclusive: 20.8 µM [inhibitor, partial curve, poor fit]
COc1ccccc1OCCCCCc1c(C)n[nH]c1C |  | inconclusive: 0.738 µM [inhibitor, full curve, poor fit]
CS(=O)(=O)c1ccc2nc(NC(=O)CCNC(=O)c3ccc(Cl)cc3)sc2c1 |  | active: 4.15 µM
COC(=O)C1=C(C)NC(C)=C(C(=O)OC)C1c1ccc(-c2cc(Cl)ccc2Cl)o1 |  | inconclusive: 9.28 µM [inhibitor, partial curve, poor fit]

Compound | activity change, negative = inhibition | Potency
OCCCNc1nc(-c2ccc(Cl)cc2)nc2ccccc12 |  | inconclusive: 4.15 µM [inhibitor, single point]
O=C(NCCCCCCNC(=O)c1ccc(Br)s1)c1ccc(Br)s1 |  | inconclusive: 18.5 µM [inhibitor, single point]
Nc1c(-c2ccsc2)cnc2ncnn12 |  | inconclusive: 18.5 µM [inhibitor, single point]
O=S(=O)(c1ccc2c(c1)OCCO2)N1CCN(S(=O)(=O)c2ccc3c(c2)OCCO3)CC1 |  | inconclusive: 0.165 µM [activator, partial curve, poor fit]
Cc1ccc(Sc2c(C(=O)Nc3ccc(F)cc3F)c(C(F)(F)F)nn2C)cc1 |  | inconclusive: 13.1 µM [inhibitor, single point]
CCCn1c(/C=C/c2ccco2)nc2ccccc21 |  | inconclusive: 20.8 µM [inhibitor, partial curve, poor fit]
CN1CCN(c2ccc(-c3cccc(NC(=O)COc4ccc(Cl)cc4)c3)nn2)CC1 |  | inconclusive: 18.5 µM [inhibitor, single point]
CCc1nnc(NC(=O)c2c(OC)cccc2OC)s1 | inactive: -5.13% | 
CCCCC(=O)N1CCN(c2nc(-c3ccc(F)cc3)cs2)CC1 |  | inconclusive: 10.4 µM [inhibitor, single point]
COc1ccc(NC2CCCN(C(=O)c3csc(C(C)C)n3)C2)cc1 (centres undefined) |  | inconclusive: 18.5 µM [inhibitor, single point]
CC1SC(c2ccccc2Cl)NC1=O (centres undefined) |  | active: 11.7 µM
CCNC(=S)N1CCN(Cc2ccc3c(c2)OCO3)CC1 |  | inconclusive: 7.38 µM [inhibitor, partial curve, poor fit]
O=NNc1nc2ccccc2n1Cc1ccccc1 |  | active: 13.1 µM
CCOc1ccc(NC(=S)N(CCc2c(C)[nH]c3ccccc23)Cc2cccnc2)cc1 |  | inconclusive: 18.5 µM [inhibitor, single point]
CN1CCN(/C(=N\O)c2nonc2N)CC1 |  | active: 14.7 µM
Cc1cccc(C(=O)N2CCCC(N3CCN(Cc4ccc5c(c4)OCO5)CC3)C2)n1 (centres undefined) |  | inconclusive: 11.7 µM [inhibitor, single point]
COc1cc(/C=C2/SC(=O)NC2=O)ccc1Oc1ccc([N+](=O)[O-])cc1[N+](=O)[O-] |  | inconclusive: 11.7 µM [inhibitor, partial curve]
CCc1ccc(Nc2n[n+](-c3ccccc3)c(-c3ccc(OCc4ccccc4)cc3)s2)cc1 |  | active: 2.94 µM
COc1ccc(NS(=O)(=O)c2cc(NC(=O)COc3ccccc3F)ccc2OC)cc1 |  | inconclusive: 11.7 µM [inhibitor, single point]
Cc1ccc(C(C)C)c(OCC(=O)N2CCOCC2)c1 |  | inconclusive: 4.15 µM [inhibitor, single point]
CCCOC(=O)/C(C)=N\NC(=O)c1ccco1 | inactive: -36.4% | 
O=C(CN1C(=O)NC2(CCCC2)C1=O)OCc1ccc(F)cc1 | inactive: 18.6% | 
CCOC(=O)c1cnc2c(cnn2C)c1NCc1ccc(OC)cc1 |  | inconclusive: 0.657 µM [inhibitor, full curve, poor fit]

Structures above containing an aryl thioether with sulfur outside any ring, in the order listed:
Compound | activity change, negative = inhibition | Potency
Cc1c(C)n2c(SCC(=O)N3CCC(C)CC3)nnc2[nH]c1=O |  | inconclusive: 13.1 µM [inhibitor, single point]
c1ccc2cc(Sc3ncnc4c3oc3ccccc34)ccc2c1 | inactive: 87.4% | 
Nc1nnc(SCC(=O)OCC(=O)NC2CCCCC2)s1 | inactive: 15.1% | 
COc1ccccc1N(CCC#N)C(=O)CSc1ccc2c(c1)OCCO2 |  | inconclusive: 9.28 µM [inhibitor, partial curve, poor fit]
Cc1ccc(Sc2c(C(=O)Nc3ccc(F)cc3F)c(C(F)(F)F)nn2C)cc1 |  | inconclusive: 13.1 µM [inhibitor, single point]
